Measurements from PubChem BioAssay AID942 (National Center for Advancing Translational Sciences (NCATS), 2007).
Inconclusive means that the source gave no clear call. Such entries were picked first, then a sample of the others. Potencies beside an inconclusive call are fits to weak or partial responses and may not hold up. “Side channel” marks fits to a control or component signal instead of the main read-out. Calls of active or inactive are those of the source. The call rests on the fitted dose curve.

Assay: Confirmation Concentration-Response Assay for Anthrax Lethal Toxin Internalization
Conditions: FRET ratio (460/530 nm); activity change, negative = inhibition: at 46.1 µM (top of the series)

| Compound | Potency | activity change, negative = inhibition |
| --- | --- | --- |
| O=C(Nc1cc(Cl)ccc1Cl)c1cc([N+](=O)[O-])cc(Br)c1O | inconclusive: 15800 nM [inhibitor, partial curve, poor fit] | – |
| COc1cc(OC)c2c(c1)C(=O)OC2c1cc(OC)c(OC)cc1C (configuration not stated) | – | inconclusive: -22.5% |
| COc1cc([C@@H]2c3cc4c(c(O)c3C[C@H]3COC(=O)[C@@H]32)OCO4)cc(OC)c1OC | inconclusive: 0.0501 nM [side channel, rising, full curve, poor fit] | – |
| COc1cc(C2c3cc4c(c(O)c3CC3COC(=O)C32)OCO4)cc(OC)c1OC (configuration not stated) | inconclusive: 39.8 nM [inhibitor, full curve, poor fit] | – |
| COc1cc2c(O)c3c(c(-c4ccc5c(c4)OCO5)c2cc1OC)C(=O)OC3 | active: 50.1 nM | – |
| O=C(Nc1ccc([N+](=O)[O-])cc1Cl)c1ccccc1O | active: 6310 nM | – |
| CCOc1c2c(c(-c3ccc4c(c3)OCO4)c3cc(OC)c(OC)cc13)C(=O)OC2 | inconclusive: 25.1 nM [falling, full curve] | – |
| COc1cc2c(OC(C)=O)c3c(c(-c4ccc5c(c4)OCO5)c2cc1OC)C(=O)OC3 | active: 39.8 nM | – |
| O=C(Nc1c(Cl)cc([N+](=O)[O-])cc1Cl)c1cc(Cl)ccc1O | inconclusive: 12600 nM [side channel, rising, partial curve, poor fit] | – |
| Cc1ccc2oc(=O)c3cnn(CC(=O)NC4CCN(Cc5ccccc5)CC4)c3c2c1 | – | inconclusive: -19.7% |
| COc1cc([C@@H]2c3cc4c(cc3C[C@H]3COC(=O)[C@@H]32)OCO4)cc(OC)c1O | inconclusive: 2510 nM [inhibitor, full curve, poor fit] | – |
| COc1cc([C@@H]2c3cc4c(cc3[C@H](OC(C)=O)[C@H]3COC(=O)[C@H]23)OCO4)cc(OC)c1OC | active: 794 nM | – |
